Paper PMC11695708
No constants are given. Whether binding was seen depends on the method and setting. Binding seen in cells or lysates may run through a third protein. Some results given as binding are weak or reduced against the parent protein; the word gives no strength.

Amino acid sequences for entries named in this document (tags omitted).
UniProt O00429: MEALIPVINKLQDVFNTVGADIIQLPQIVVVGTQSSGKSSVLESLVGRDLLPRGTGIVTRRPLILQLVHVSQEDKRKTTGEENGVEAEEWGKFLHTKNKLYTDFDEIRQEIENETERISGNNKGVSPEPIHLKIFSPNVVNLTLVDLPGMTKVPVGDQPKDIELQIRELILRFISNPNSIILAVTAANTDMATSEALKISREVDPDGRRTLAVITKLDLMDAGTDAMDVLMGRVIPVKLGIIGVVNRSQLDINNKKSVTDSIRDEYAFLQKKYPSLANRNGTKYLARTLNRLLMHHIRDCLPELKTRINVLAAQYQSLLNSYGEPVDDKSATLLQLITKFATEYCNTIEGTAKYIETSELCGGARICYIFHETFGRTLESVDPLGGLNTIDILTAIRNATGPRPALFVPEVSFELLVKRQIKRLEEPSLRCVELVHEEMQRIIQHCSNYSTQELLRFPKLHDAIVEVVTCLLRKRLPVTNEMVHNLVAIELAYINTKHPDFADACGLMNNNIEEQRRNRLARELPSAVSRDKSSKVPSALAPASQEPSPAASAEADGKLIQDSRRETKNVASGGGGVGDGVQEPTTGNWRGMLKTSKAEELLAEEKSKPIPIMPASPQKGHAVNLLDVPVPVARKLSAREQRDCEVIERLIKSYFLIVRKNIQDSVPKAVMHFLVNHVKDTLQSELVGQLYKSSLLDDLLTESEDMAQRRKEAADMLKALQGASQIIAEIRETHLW
UniProt P21333: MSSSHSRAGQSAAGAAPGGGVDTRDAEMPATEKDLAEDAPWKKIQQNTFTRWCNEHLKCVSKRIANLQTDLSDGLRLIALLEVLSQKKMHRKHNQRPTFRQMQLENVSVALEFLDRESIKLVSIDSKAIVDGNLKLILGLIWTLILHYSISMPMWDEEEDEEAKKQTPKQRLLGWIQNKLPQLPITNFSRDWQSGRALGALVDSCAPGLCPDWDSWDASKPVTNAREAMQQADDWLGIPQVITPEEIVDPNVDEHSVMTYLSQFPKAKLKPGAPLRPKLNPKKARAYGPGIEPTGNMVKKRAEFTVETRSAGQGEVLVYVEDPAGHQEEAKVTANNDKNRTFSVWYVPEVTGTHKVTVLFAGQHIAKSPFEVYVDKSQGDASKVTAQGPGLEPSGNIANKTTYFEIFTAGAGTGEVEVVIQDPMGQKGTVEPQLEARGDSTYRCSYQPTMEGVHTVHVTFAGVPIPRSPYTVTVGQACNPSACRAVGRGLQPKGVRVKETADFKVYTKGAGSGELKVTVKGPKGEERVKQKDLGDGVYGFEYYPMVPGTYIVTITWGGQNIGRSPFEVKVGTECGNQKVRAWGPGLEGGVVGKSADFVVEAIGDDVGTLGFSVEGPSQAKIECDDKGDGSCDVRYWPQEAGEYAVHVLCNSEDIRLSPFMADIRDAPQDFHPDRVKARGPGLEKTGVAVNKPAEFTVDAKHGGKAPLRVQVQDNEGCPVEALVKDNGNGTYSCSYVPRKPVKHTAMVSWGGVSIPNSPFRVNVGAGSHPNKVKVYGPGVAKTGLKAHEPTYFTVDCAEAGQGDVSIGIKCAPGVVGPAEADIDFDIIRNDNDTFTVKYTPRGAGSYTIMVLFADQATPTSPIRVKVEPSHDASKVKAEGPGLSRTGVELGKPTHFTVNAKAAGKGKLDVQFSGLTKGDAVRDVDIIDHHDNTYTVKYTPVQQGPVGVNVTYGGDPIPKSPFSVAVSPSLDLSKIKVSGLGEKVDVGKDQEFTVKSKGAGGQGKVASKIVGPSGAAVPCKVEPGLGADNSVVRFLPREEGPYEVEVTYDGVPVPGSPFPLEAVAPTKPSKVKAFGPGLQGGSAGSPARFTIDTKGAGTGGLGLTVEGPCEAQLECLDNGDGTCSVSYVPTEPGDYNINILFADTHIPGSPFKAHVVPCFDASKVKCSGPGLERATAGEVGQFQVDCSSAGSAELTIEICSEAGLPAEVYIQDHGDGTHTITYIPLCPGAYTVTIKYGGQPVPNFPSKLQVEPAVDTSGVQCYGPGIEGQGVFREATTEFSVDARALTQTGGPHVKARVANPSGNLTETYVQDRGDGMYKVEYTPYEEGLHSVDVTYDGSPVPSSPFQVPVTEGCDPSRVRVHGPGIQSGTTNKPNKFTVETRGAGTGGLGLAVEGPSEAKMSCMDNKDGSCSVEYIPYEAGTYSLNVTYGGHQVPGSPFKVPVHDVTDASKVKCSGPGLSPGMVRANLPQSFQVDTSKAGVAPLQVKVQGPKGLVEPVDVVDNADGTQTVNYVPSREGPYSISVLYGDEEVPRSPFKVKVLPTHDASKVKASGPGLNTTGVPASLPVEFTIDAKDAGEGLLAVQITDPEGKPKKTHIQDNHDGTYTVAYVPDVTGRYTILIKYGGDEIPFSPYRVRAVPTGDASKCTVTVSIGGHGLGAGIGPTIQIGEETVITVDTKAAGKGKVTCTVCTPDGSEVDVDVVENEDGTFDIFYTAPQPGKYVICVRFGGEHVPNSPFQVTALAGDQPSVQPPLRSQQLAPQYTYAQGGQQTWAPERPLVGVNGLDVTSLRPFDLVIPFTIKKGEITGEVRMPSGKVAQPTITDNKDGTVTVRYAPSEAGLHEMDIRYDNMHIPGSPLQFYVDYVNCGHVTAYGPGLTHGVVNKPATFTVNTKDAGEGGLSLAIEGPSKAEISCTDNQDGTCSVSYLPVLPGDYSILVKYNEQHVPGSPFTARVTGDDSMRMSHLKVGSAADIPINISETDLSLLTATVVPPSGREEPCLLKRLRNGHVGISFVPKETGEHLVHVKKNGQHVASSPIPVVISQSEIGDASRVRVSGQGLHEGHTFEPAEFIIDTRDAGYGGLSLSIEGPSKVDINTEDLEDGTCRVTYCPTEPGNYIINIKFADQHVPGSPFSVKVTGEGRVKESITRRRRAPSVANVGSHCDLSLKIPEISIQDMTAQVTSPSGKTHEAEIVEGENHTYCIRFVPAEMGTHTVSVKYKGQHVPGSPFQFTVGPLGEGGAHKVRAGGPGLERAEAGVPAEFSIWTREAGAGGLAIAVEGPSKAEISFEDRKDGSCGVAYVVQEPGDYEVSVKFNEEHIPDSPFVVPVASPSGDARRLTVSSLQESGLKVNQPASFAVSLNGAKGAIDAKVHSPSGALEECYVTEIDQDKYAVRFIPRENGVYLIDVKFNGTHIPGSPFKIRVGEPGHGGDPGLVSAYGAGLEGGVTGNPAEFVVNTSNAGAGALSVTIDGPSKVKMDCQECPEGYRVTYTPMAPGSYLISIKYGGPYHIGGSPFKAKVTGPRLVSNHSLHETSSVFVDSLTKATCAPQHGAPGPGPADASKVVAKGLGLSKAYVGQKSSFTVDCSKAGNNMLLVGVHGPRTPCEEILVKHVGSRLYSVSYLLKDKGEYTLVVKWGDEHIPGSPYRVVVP

Target: FLAG-Drp1 wild-type (dynamin-related protein 1) (UniProt O00429)
Experiment: co-IP; FLAG-Drp1 immunoprecipitated from 293 T cells transfected with FLAG-Drp1 WT or EA, under normoxia or hypoxia; FLNa looked for in the precipitate

For “filamin A (FLNa) (from UniProt P21333 1-2647)”, the binding was “binds”.
